Assay results taken from patent publication EP4644412A1.
Results are given in words; binding and its absence hold for the method and conditions named. Some binding calls cover weakened binding; strength is not graded here. Sequences can lack the tags named with a protein.

Protein sequences, listed by entry. Tags and fused reporters are not part of them. Residues count along the entry.
UniProt P06494, residues 23-1257: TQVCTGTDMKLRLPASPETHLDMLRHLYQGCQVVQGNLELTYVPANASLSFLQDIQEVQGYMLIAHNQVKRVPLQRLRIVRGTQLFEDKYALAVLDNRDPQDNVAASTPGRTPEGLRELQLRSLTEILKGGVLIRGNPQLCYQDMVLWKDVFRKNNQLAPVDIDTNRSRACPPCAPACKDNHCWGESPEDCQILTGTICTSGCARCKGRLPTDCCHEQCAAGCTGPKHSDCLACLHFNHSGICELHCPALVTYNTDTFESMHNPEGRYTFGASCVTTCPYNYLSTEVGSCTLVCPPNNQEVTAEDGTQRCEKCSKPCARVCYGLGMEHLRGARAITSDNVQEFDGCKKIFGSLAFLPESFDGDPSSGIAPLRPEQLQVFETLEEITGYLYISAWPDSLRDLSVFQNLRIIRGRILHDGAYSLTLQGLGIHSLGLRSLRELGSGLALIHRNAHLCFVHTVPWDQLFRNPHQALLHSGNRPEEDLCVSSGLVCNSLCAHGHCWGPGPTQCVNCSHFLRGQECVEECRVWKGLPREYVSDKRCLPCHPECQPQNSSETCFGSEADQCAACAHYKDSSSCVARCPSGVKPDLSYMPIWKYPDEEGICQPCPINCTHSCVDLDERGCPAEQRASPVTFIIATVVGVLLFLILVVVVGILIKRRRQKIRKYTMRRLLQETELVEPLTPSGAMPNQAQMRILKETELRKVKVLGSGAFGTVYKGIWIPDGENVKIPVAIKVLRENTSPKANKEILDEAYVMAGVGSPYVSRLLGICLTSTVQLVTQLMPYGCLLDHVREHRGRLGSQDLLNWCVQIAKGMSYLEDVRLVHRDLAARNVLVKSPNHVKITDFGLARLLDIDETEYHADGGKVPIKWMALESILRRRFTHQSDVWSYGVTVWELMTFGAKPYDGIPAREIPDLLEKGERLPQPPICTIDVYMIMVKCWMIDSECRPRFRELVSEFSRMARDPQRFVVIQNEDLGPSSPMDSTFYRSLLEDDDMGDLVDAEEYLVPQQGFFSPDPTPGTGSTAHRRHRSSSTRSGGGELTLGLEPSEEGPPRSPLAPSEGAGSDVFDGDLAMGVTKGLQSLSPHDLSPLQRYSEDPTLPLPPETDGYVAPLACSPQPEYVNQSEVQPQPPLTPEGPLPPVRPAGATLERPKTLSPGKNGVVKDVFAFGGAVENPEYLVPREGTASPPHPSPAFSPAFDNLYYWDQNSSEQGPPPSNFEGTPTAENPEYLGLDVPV

B1: 7.16.4 antibody fragment fusion protein (CoreX) (Fc fusion, not shown: small tags and cut ends; a dimerising Fc or GST)
chain: DIQMTQSPATLSVTPGDSVSLSCRASQSISKNLHWYQQKSHESPRLLIKFASQSISGIPSRFSGSGSGTDFTLSINSVETEDFGMYFCQQSNNWPLTFGAGTKLELKSSGGGGSGGGGGGSSRSSLEVQLKQSGPGLVKPSQSLSLTCSVTGYSFTSYYYWNWIRQFPGNRLEWMGYISYDGTNYYNPSLKNRISITRDTSKNQFFLNLNSMTTEDTATYYCAREENWDWYFDVWGAGTTVTVSS
B2: 7.16.4 antibody fragment fusion protein (CoreXC) (Fc fusion, not shown: small tags and cut ends; a dimerising Fc or GST)
chain: B1 chain

Molecular target: neu antigen (UniProt P06494)
Assay: flow cytometry on 4T1-neu cells, 1 to 500 ng, anti-human IgG detection

binding	Binder
binds	B1
binds	B2
